This is one part of the list. Further columns of the screen follow, without active or inactive calls. Compounds called inactive in the main read-out are mostly missing here. Words in brackets tell the shape of the fitted curve; partial curves, single points and poor fits give uncertain potencies.

Broadly, the AC50 is the midpoint of the concentration-response curve, whichever way the signal moves.

The nature of the assay: qHTS Assay to Find Inhibitors of Chronic Active B-Cell Receptor Signaling. The settings on record: ABC-DLBCL IkBa-CBG/CBR reporter, luminescence ratio (green luciferase fused to IkBa over red control in TMD8 lymphoma cells), 4 h; measured here: CBR red luminescence, cell number. A digest of the protocol: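 Concentration-response series (up to 46 uM) were applied to TMD8 dual-reporter cells for 4 h at 37C with doxycycline. Green/red ratio, after filter-overlap correction, defined %Activity; red signal alone was normalised to basal cells and zero luminescence.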
Take `CCOc1ccc(CCNS(=O)(=O)c2cccc3nsnc23)cc1OCC`: the AC50 was 0.291 µM [rising, partial curve, poor fit].
For the molecule `N#CCSc1ccc(-c2nc3ccccc3[nH]2)cn1`, the AC50 is 15.8 µM [falling, partial curve, poor fit].
Take `CCOC(=O)c1cc2ccc3ccccc3c2s1`: the AC50 is 16.4 µM [rising, partial curve].
To `O=C(NC(=S)Nc1cccc([N+](=O)[O-])c1)C1CCCC1` belongs 12.6 µM [falling, partial curve, poor fit].
To `CCOC(=O)NC(=S)Nc1ccc(C(C)(C)C)cc1` belongs 22.4 µM [rising, partial curve, poor fit]; to `c1csc(-c2cnc3n2CCCC3)c1`, 6.31 µM [rising, single point]; to `C/C(=N\NC(=O)c1ccccc1C)c1ccc(NC(=O)c2cccs2)cc1`, 8.91 µM [falling, partial curve].
To `Nc1nc(NC(=O)c2ccc(Cl)cc2)nn1-c1ccccc1` belongs 23.1 µM [falling, single point]; to `COc1ccc(NC(=O)COc2coc(CN3CCc4ccccc43)cc2=O)cc1`, 0.461 µM [falling, full curve, poor fit].
`O=C(/C=C/c1ccco1)Nc1ccc(N2CCCC2)cc1`: the AC50 is 0.0651 µM [falling, full curve, poor fit].
To `COC(=O)N1C(=O)[C@](CC(C)C)(c2ccccc2)N1C(=O)OC` belongs 12.6 µM [falling, single point]; to `Cc1nnc(SCC(=O)c2ccc(Br)cc2)s1`, 14.1 µM [falling, partial curve, poor fit].
To `O=C(Nc1nc2ccc(S(=O)(=O)N3CCCCC3)cc2s1)c1ccncc1` belongs 0.82 µM [rising, full curve, poor fit]; to `Cc1ccc(/C=C2/SC(=S)N(CCCC(=O)Nc3ccc(O)cc3)C2=O)cc1`, 2.24 µM [falling, partial curve]; to `O=C1/C(=C/c2cccs2)SC(=S)N1c1cccc(O)c1`, 2.51 µM [rising, partial curve, poor fit].
To `CCOC(=O)COc1ccc(Br)cc1/C=C\c1[nH]c(=O)[nH]c(=O)c1[N+](=O)[O-]` belongs 25.9 µM [falling, partial curve, poor fit]; to `O=S(=O)(Nc1ncccn1)c1ccc(Cl)cc1`, 0.398 µM [rising, partial curve, poor fit]; to `CC1CCCC(NC(=O)CCn2c(=S)oc3ccccc32)C1C` (stereo not drawn), 3.55 µM [rising, partial curve, poor fit].

These data come from PubChem BioAssay AID493014 (National Center for Advancing Translational Sciences (NCATS), 2011).
